In patent US20060257938A1, “Method of screening for drugs that block ligand binding to a lipid binding protein” (priority 2005, published 2006):

Assay: Baseline fluorescence ratio Ro of probe in absence of analyte
[1] = average baseline fluorescence ratio Ro of the clone probe, substitutions with respect to SEQ ID NO: 2
[2] = baseline fluorescence ratio of probe
[3] = baseline fluorescence ratio of probe, no fatty acid

Molecule | AvgOfRo [1] | Ro [2] | AvgOfRo [3] | Ro [3]
72F (protein, listed as Rattus norvegicus, PEPTIDE (1)...(131) wild-type rat intestinal fatty acid binding protein) AFDGTWKVDRNENYEKFMEKMGINVVKRKLGAHDNLKLTITQEGNKFTVKESSNFRNIDVVFELGVDFAYSFADGTELTGTWTMEGNKLVGKFKRVDNGKELIAVREISGNELIQTYTYEGVEAKRIFKKE | 0.52 | 0.520 |  | 
72G (protein, listed as Rattus norvegicus, PEPTIDE (1)...(131) wild-type rat intestinal fatty acid binding protein) AFDGTWKVDRNENYEKFMEKMGINVVKRKLGAHDNLKLTITQEGNKFTVKESSNFRNIDVVFELGVDFAYSGADGTELTGTWTMEGNKLVGKFKRVDNGKELIAVREISGNELIQTYTYEGVEAKRIFKKE | 0.28 | 0.307 |  | 
72K (protein, listed as Rattus norvegicus, PEPTIDE (1)...(131) wild-type rat intestinal fatty acid binding protein) AFDGTWKVDRNENYEKFMEKMGINVVKRKLGAHDNLKLTITQEGNKFTVKESSNFRNIDVVFELGVDFAYSKADGTELTGTWTMEGNKLVGKFKRVDNGKELIAVREISGNELIQTYTYEGVEAKRIFKKE | 0.40 |  |  | 
72M (protein, listed as Rattus norvegicus, PEPTIDE (1)...(131) wild-type rat intestinal fatty acid binding protein) AFDGTWKVDRNENYEKFMEKMGINVVKRKLGAHDNLKLTITQEGNKFTVKESSNFRNIDVVFELGVDFAYSMADGTELTGTWTMEGNKLVGKFKRVDNGKELIAVREISGNELIQTYTYEGVEAKRIFKKE | 0.38 |  |  | 
104F1, 72A (protein, listed as Rattus norvegicus, PEPTIDE (1)...(131) wild-type rat intestinal fatty acid binding protein) AFDGTWKVDRNENYEKFMEKMGINVVKRKLGAHDNLKLTITQEGNKFTVKESSNFRNIDVVFELGVDFAYSAADGTELTGTWTMEGNKLVGKFKRVDNGKELIFVREISGNELIQTYTYEGVEAKRIFKKE |  |  | 0.35 | 
72N (protein, listed as Rattus norvegicus, PEPTIDE (1)...(131) wild-type rat intestinal fatty acid binding protein) AFDGTWKVDRNENYEKFMEKMGINVVKRKLGAHDNLKLTITQEGNKFTVKESSNFRNIDVVFELGVDFAYSNADGTELTGTWTMEGNKLVGKFKRVDNGKELIAVREISGNELIQTYTYEGVEAKRIFKKE | 0.31 |  |  | 0.310
72Q (protein, listed as Rattus norvegicus, PEPTIDE (1)...(131) wild-type rat intestinal fatty acid binding protein) AFDGTWKVDRNENYEKFMEKMGINVVKRKLGAHDNLKLTITQEGNKFTVKESSNFRNIDVVFELGVDFAYSQADGTELTGTWTMEGNKLVGKFKRVDNGKELIAVREISGNELIQTYTYEGVEAKRIFKKE | 0.66 |  |  | 0.665
72R (protein, listed as Rattus norvegicus, PEPTIDE (1)...(131) wild-type rat intestinal fatty acid binding protein) AFDGTWKVDRNENYEKFMEKMGINVVKRKLGAHDNLKLTITQEGNKFTVKESSNFRNIDVVFELGVDFAYSRADGTELTGTWTMEGNKLVGKFKRVDNGKELIAVREISGNELIQTYTYEGVEAKRIFKKE | 0.69 |  |  | 
72S (protein, listed as Rattus norvegicus, PEPTIDE (1)...(131) wild-type rat intestinal fatty acid binding protein) AFDGTWKVDRNENYEKFMEKMGINVVKRKLGAHDNLKLTITQEGNKFTVKESSNFRNIDVVFELGVDFAYSSADGTELTGTWTMEGNKLVGKFKRVDNGKELIAVREISGNELIQTYTYEGVEAKRIFKKE | 0.21 |  |  | 
